Drawing on article PMC6520365, “Structural and functional characterization of the PDZ domain of the human phosphatase PTPN3 and its interaction with the human papillomavirus E6 oncoprotein” (Scientific Reports, 2019), this text covers binding for two molecules.

Chains of the proteins cited; added tags and fusions are not shown. Lines headed by an entry give the natural chain unless they say otherwise; changes in a name come on top.
UniProt P26045: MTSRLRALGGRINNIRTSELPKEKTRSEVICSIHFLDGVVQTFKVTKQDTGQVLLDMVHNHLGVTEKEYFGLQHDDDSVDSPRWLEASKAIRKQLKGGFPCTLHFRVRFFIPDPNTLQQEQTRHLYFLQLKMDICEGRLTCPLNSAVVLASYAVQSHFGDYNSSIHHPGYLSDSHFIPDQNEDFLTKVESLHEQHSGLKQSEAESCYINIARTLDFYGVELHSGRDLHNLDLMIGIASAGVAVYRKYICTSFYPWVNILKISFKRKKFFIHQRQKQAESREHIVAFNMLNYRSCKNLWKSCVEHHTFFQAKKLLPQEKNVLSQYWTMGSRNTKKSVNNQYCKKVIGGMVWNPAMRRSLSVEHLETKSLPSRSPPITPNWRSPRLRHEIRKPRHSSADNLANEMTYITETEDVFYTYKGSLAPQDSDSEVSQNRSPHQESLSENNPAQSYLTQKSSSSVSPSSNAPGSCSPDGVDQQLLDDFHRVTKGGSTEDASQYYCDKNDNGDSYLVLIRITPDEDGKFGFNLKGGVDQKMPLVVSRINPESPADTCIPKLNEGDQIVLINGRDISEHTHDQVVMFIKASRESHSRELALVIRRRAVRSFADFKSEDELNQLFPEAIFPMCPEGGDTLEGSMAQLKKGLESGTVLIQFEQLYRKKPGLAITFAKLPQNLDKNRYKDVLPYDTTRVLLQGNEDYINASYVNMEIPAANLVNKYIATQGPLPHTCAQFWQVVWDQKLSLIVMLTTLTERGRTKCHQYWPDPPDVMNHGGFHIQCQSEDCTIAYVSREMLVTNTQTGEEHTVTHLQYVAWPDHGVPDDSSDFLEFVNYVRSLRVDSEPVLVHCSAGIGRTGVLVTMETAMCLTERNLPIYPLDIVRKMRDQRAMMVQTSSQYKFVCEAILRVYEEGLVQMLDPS

Results are given in words; binding and its absence hold for the method and conditions named. Binding calls can cover weak binding; strength is not graded here.

This assay deals with PDZ domain of the human protein tyrosine phosphatase non-receptor type 3 (PTPN3-PDZ) (human) (UniProt P26045). Kind of assay: differential scanning calorimetry (DSC); 28 μM PTPN3-PDZ with a large excess of peptide (about 200-600 μM), buffer A, scanned from 10 °C to 90-100 °C at 200 °C/h; rise of Tm against the free domain; both purified.

For SWARVSKETPL [p38γ PBM peptide (C-terminal sequence of the MAP kinase p38γ)], the binding entry was “binds”. For RRRRSQSRESQC [HBVc PBM peptide (C-terminal sequence of the hepatitis B virus core protein)], the binding entry is “binds”.
